No constants are given. Whether binding was seen depends on the method and setting. In cells and extracts the contact can be indirect. Some results given as binding are weak or reduced against the parent protein; the word gives no strength. For some of these results: Sequences can lack the tags named with a protein.

Chains of the proteins cited; added tags and fusions are not shown.
UniProt P31749: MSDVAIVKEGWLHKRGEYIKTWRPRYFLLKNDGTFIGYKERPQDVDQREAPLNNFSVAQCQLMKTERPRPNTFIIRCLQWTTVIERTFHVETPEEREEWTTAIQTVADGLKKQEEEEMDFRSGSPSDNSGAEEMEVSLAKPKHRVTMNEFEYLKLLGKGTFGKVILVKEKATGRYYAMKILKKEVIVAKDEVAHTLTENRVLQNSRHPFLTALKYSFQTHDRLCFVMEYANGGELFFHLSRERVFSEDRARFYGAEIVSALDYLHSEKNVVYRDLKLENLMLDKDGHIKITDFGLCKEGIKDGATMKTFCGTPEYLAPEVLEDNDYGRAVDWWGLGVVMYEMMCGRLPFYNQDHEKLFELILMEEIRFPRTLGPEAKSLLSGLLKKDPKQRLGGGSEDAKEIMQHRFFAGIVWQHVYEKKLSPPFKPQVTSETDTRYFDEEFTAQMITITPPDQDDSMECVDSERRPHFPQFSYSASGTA

One assay deals with T1, Myc-MDA5 (UniProt Q9BYX4).
T1 sequence: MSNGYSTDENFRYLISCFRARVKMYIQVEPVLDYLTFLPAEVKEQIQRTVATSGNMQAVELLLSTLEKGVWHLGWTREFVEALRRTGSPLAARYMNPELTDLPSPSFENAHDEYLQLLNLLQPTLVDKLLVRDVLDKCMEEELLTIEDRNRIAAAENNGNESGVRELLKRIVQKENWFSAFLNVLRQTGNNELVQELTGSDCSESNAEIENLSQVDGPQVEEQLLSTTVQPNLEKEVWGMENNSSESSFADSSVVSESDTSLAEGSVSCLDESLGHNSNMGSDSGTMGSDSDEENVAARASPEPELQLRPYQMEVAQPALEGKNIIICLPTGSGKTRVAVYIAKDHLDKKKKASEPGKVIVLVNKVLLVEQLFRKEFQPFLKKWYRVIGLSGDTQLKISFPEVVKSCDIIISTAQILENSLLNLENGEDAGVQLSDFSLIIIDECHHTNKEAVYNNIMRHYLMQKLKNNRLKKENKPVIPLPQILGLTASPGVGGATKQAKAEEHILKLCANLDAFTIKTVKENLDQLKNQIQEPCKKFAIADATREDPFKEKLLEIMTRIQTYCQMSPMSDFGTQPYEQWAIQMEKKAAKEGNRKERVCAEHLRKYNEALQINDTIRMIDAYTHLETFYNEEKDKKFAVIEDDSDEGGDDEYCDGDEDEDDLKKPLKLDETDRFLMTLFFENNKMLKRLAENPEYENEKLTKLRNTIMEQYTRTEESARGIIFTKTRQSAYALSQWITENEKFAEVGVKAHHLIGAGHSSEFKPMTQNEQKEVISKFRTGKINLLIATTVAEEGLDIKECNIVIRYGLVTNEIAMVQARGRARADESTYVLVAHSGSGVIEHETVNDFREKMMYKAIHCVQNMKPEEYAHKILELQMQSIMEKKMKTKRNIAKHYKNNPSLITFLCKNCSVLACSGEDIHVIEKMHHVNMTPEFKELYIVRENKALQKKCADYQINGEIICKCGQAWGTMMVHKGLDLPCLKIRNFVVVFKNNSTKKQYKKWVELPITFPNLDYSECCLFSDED
Description: co-IP; HEK293T cells transfected with USP8, MDA5 and empty vector or the indicated dose of HA-AKT1; NP-40 lysis buffer; Anti-Myc or S-protein agarose at 4 °C overnight.

The target of the next assay is T2, SFB-USP8 (human) (UniProt P40818).
T2 sequence: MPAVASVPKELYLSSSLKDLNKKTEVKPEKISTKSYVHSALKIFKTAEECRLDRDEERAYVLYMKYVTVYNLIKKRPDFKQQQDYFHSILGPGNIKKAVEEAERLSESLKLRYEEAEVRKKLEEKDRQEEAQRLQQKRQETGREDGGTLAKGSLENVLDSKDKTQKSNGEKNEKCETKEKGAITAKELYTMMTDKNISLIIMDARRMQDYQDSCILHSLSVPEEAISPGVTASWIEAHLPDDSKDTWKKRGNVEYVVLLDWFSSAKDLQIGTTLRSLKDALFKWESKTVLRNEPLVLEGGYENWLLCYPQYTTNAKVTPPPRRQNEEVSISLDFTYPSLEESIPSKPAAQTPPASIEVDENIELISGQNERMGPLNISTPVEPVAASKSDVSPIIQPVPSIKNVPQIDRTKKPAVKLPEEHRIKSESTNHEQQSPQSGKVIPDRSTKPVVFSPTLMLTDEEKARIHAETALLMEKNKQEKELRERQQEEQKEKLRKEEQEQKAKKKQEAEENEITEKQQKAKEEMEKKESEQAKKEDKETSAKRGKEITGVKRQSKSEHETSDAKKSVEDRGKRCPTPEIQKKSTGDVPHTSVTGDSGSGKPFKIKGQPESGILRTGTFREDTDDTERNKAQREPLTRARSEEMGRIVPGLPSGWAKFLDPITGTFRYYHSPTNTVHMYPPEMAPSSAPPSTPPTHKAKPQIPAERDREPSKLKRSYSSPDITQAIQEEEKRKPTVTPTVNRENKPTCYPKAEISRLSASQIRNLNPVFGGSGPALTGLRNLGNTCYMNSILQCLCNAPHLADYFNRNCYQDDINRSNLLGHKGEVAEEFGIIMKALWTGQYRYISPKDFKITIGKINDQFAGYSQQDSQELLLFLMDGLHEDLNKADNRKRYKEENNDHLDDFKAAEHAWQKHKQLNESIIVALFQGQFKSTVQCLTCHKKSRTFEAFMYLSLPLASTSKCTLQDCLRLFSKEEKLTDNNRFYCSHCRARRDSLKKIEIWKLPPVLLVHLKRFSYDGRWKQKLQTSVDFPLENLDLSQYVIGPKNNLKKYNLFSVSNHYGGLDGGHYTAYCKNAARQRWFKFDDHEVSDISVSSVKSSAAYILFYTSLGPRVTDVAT
The description is as above.

Assay [1] has as its target T3, USP8 (construct of the supplementary figures not shown) (human) (UniProt P40818).
T3 sequence: T2 sequence
Description: co-IP; with or without EMCV infection; cells, baits and constructs not shown (Figure S5A,E).

The target in assay [2] is T4, MDA5 (construct of the supplementary figures not shown) (UniProt Q9BYX4).
T4 sequence: T1 sequence
The assay is described as above.

For the substance “HA-AKT1 (from UniProt P31749 1-480) (enzyme)”, the binding result with Myc-MDA5 and with SFB-USP8 (human) was “binds” in each case.
For “AKT1 (construct of the supplementary figures not shown) (from UniProt P31749 1-480) (enzyme)”, the binding result in assay [1] and in assay [2] was “binds” in each case.

(Values after PMC12442633.)
